Source: the supplement of paper PMC10849652
This is one part of the list.

By UniProt entry, the sequences of proteins in these tests, tags left out. Where a name states a change or a piece, a line headed by the entry shows the natural chain unless it says otherwise.
UniProt P06753, whole entry, looked up: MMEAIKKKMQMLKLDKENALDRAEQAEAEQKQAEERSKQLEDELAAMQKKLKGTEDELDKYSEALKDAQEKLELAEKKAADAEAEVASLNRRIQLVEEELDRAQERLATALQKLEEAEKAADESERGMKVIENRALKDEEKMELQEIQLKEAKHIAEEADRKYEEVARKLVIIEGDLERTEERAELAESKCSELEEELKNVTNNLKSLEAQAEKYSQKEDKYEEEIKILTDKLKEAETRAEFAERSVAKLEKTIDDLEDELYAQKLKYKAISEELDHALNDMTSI
UniProt Q8WW01: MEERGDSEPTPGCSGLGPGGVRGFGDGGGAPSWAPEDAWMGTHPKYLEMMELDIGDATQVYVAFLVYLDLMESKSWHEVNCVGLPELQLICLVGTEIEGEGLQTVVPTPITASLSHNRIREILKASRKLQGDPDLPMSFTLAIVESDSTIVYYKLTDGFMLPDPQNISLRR
UniProt Q9UPN9: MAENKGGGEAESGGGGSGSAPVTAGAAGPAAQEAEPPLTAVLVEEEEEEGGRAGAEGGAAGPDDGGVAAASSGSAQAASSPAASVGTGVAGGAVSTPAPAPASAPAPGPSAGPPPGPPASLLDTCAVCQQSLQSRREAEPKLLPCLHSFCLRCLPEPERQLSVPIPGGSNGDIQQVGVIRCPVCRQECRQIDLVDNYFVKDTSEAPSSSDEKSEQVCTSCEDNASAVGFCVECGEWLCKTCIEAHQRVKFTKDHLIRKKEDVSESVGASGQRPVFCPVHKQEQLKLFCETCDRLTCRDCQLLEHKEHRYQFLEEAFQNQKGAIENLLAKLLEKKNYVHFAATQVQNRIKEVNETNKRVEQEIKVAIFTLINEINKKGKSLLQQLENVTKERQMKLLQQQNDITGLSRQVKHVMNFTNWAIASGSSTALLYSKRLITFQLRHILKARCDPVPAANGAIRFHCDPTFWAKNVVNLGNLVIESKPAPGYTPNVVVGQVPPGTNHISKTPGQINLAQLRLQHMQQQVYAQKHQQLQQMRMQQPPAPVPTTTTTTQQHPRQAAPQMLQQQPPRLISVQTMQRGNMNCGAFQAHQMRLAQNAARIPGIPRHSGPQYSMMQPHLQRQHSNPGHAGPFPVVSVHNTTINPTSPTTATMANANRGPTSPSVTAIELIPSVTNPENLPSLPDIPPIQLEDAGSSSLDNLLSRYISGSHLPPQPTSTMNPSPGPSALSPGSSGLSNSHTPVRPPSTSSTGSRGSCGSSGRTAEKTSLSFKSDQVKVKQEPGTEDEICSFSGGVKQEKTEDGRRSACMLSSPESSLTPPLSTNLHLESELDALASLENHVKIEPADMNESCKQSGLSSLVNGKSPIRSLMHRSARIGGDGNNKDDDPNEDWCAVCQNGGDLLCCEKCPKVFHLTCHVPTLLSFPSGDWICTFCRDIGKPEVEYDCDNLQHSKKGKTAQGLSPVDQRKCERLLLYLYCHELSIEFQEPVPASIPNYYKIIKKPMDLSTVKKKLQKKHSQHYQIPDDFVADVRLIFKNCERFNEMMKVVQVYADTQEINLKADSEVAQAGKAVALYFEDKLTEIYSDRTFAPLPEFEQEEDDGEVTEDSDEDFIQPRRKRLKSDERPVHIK
UniProt O95985: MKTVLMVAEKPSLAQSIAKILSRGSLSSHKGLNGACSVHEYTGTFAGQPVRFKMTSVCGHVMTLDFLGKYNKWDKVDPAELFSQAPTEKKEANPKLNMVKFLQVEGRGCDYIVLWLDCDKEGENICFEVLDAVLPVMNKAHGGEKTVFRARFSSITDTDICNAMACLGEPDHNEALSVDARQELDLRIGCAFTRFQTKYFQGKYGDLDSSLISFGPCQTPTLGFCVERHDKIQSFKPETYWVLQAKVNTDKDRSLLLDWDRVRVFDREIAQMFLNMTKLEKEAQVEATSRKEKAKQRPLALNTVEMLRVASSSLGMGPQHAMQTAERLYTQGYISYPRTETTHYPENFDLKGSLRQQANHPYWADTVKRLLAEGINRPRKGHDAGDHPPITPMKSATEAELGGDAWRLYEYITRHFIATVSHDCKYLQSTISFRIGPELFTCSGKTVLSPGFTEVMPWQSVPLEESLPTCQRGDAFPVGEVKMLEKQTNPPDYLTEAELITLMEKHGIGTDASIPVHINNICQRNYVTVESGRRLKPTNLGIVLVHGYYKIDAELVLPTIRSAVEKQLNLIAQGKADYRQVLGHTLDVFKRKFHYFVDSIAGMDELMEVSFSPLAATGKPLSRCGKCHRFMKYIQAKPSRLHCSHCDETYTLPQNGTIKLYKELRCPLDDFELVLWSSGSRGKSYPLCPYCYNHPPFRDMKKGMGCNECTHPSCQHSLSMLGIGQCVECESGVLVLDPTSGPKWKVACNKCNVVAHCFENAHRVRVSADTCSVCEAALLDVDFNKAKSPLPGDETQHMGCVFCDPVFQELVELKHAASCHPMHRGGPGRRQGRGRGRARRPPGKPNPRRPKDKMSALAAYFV
UniProt P48553, whole entry, looked up: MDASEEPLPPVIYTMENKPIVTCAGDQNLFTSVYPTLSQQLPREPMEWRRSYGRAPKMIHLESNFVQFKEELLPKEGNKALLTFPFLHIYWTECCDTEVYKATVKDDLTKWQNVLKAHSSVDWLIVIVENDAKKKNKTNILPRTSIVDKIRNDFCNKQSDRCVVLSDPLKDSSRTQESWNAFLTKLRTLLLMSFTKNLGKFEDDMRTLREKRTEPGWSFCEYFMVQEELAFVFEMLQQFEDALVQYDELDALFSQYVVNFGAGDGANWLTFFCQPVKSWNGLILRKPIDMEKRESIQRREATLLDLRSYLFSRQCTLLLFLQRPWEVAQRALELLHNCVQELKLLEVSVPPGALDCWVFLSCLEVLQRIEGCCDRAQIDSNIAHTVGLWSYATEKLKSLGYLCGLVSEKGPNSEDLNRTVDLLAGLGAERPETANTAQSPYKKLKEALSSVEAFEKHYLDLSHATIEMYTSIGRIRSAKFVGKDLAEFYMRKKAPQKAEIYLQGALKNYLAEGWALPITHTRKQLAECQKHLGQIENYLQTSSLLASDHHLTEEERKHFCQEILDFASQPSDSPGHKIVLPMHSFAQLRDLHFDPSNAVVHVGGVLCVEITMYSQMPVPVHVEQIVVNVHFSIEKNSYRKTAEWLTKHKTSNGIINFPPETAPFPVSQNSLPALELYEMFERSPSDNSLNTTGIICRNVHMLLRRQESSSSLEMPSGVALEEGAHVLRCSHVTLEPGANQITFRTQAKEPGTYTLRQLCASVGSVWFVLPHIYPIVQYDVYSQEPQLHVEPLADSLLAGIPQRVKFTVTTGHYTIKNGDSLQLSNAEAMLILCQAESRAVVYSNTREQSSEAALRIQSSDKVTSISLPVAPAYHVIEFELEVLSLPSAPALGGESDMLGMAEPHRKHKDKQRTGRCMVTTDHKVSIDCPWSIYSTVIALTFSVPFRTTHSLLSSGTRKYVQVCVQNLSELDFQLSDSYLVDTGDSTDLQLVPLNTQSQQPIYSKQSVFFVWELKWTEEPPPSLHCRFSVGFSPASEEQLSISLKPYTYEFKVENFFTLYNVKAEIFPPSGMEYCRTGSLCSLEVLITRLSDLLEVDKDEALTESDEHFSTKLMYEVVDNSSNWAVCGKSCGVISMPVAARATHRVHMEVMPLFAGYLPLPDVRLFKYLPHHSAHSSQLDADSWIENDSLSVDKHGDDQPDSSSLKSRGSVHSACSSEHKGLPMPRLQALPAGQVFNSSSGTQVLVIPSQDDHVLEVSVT
UniProt Q15654: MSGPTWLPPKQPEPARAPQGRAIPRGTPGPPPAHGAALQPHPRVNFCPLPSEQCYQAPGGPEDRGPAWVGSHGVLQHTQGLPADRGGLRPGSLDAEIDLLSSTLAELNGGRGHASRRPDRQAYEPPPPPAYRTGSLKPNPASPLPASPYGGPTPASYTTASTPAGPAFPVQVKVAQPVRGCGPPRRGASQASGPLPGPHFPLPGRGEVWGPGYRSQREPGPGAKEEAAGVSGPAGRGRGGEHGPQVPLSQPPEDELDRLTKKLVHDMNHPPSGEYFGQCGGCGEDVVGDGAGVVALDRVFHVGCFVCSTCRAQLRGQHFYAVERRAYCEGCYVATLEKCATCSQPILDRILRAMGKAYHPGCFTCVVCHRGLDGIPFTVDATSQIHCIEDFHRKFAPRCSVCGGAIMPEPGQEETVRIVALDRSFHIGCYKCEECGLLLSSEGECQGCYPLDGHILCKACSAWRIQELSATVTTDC
UniProt Q9Y4K3: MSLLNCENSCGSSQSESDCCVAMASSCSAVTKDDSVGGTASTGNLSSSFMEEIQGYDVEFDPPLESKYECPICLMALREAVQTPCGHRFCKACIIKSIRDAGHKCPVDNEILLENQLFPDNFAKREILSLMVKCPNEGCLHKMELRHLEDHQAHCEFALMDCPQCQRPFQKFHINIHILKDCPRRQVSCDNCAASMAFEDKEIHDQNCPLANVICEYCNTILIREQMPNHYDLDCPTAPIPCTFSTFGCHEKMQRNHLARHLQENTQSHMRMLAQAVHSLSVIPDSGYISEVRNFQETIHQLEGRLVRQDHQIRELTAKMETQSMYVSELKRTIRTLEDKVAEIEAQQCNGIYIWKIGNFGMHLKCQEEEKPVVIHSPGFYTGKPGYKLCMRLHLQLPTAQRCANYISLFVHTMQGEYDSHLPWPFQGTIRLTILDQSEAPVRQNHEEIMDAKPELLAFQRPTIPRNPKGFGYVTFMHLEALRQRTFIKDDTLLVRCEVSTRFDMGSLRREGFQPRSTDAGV
UniProt P62995: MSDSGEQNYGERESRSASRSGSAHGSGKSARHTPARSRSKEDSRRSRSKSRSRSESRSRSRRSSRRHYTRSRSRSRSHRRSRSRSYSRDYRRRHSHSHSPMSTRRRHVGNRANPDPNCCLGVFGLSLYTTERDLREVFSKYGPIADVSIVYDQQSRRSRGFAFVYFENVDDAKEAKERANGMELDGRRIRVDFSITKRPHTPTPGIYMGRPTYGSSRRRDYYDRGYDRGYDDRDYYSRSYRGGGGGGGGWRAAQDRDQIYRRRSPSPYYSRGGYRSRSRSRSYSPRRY
UniProt Q969M1: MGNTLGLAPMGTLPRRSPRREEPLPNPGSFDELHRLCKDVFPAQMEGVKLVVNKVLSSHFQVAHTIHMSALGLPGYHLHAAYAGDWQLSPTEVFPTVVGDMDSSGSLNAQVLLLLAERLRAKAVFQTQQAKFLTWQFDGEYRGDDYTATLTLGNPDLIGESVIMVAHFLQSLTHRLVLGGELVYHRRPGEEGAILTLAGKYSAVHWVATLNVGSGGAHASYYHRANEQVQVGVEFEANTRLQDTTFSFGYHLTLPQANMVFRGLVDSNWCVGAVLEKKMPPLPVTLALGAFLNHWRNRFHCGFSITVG
UniProt Q96Q11: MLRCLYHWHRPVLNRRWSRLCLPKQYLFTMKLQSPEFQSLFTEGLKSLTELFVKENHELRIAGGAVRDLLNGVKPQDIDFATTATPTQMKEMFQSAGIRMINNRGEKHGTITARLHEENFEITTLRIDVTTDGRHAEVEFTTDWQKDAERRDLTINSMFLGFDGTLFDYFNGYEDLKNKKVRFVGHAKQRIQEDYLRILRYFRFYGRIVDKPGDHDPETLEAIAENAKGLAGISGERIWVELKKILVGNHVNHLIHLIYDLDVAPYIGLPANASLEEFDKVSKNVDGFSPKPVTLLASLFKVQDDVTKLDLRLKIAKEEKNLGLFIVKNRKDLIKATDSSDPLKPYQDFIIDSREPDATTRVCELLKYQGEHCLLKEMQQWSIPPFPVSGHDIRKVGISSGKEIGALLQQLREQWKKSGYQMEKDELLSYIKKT
UniProt O60704: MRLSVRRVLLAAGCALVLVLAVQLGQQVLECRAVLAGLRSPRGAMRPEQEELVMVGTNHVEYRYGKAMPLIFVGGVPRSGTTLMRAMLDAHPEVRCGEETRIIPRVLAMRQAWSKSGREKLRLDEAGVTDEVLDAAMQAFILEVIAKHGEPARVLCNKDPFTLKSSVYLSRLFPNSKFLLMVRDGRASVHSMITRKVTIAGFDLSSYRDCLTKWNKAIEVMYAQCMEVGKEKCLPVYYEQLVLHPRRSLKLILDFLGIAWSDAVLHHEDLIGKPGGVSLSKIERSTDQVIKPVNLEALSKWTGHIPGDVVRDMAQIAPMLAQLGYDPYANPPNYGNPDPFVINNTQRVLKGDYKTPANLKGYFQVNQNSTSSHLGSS
UniProt Q9BSV6: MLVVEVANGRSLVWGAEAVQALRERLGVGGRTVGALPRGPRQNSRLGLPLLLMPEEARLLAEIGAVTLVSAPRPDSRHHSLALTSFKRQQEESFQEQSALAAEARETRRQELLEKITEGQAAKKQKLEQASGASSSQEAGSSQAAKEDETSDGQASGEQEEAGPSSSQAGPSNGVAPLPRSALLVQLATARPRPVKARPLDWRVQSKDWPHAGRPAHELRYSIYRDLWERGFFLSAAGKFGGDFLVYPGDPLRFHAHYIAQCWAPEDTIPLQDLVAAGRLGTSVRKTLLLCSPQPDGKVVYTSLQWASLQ

Legend:
Assay in all cases: log2 fold change, soluble protein after heating vs DMSO (PISA); higher = thermal stabilisation; K562 cells, 10 uM, 30 min; active = over 0.2 and 3.5 SD of the protein, either way, in both replicates (recomputed)
saracatinib = compound: CN1CCN(CCOc2cc(OC3CCOCC3)c3c(Nc4c(Cl)ccc5c4OCO5)ncnc3c2)CC1 [saracatinib]
Method in brief: (§1)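 K562 cells (2×10^6 cells/mL) were treated with 10 μM compound for 30 min, and aliquots were heated for 3 min over 48°C-58°C. Pooled aliquots were extracted in PBS with 0.5% NP-40 at 4°C, and the supernatant after 21,000xg for 90 min was measured by TMTpro 16plex LC-MS/MS with channel sums equalised. Reported thermal stability, relative to control samples and from duplicates, is a log2 fold change.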

sotrastaurin = compound: CN1CCN(c2nc(C3=C(c4c[nH]c5ccccc45)C(=O)NC3=O)c3ccccc3n2)CC1 [sotrastaurin]
Method in brief: as §1

alvocidib = compound: CN1CC[C@H](c2c(O)cc(O)c3c(=O)cc(-c4ccccc4Cl)oc23)[C@H](O)C1 [alvocidib]
Method in brief: as §1

Tubastatin A = compound: CN1CCc2c(c3ccccc3n2Cc2ccc(C(=O)NO)cc2)C1 [Tubastatin A]
Method in brief: as §1

[1] = compound: CNC(=O)C1=CC=CC=C1NC2=NC(=NC=C2Cl)NC3=C(C=C(C=C3)N4CCOCC4)OC
Method in brief: as §1

defactinib = compound: CNC(=O)c1ccc(Nc2ncc(C(F)(F)F)c(NCc3nccnc3N(C)S(C)(=O)=O)n2)cc1 [defactinib]
Method in brief: as §1

rucaparib = compound: CNCc1ccc(-c2[nH]c3cc(F)cc4c3c2CCNC4=O)cc1 [rucaparib]
Method in brief: as §1

[2] = compound: CNc1nc(-c2ccc3c(N)n[nH]c3c2)cc(N2C[C@@H](C(=O)NC3CCCCC3)CC[C@H]2C)n1
Method in brief: as §1

encorafenib = compound: COC(=O)N[C@@H](C)CNc1nccc(-c2cn(C(C)C)nc2-c2cc(Cl)cc(NS(C)(=O)=O)c2F)n1 [encorafenib]
Method in brief: as §1

[3] = compound: COC(=O)[C@H](CCSC)NC(=O)C1=C(C=C(C=C1)NC[C@H](CS)N)C2=CC=CC=C2
Method in brief: as §1

[4] = compound: COC1=CC=C(C=C1)CN2C=CC3=C2C=C(C=C3)C(=O)NO
Method in brief: as §1

filanesib = compound: CON(C)C(=O)N1N=C(c2cc(F)ccc2F)S[C@@]1(CCCN)c1ccccc1 [filanesib]
Method in brief: as §1

zotarolimus = compound: CO[C@H]1C[C@@H]2CC[C@@H](C)[C@@](O)(O2)C(=O)C(=O)N2CCCC[C@H]2C(=O)O[C@H]([C@H](C)C[C@@H]2CC[C@H](n3cnnn3)[C@H](OC)C2)CC(=O)[C@H](C)/C=C(\C)[C@@H](O)[C@@H](OC)C(=O)[C@H](C)C[C@H](C)/C=C/C=C/C=C/1C [zotarolimus]
Method in brief: as §1

idasanutlin = compound: COc1cc(C(=O)O)ccc1NC(=O)[C@@H]1N[C@@H](CC(C)(C)C)[C@](C#N)(c2ccc(Cl)cc2F)[C@H]1c1cccc(Cl)c1F [idasanutlin]
Method in brief: as §1

alisertib = compound: COc1cc(Nc2ncc3c(n2)-c2ccc(Cl)cc2C(c2c(F)cccc2OC)=NC3)ccc1C(=O)O [alisertib]
Method in brief: as §1

[5] = compound: COc1cc2nc(-c3cc(F)ccc3O)nc(N[C@@H]3CNC[C@H]3C(C)(C)O)c2cc1OC
Method in brief: as §1

gefitinib = compound: COc1cc2ncnc(Nc3ccc(F)c(Cl)c3)c2cc1OCCCN1CCOCC1 [gefitinib]
Method in brief: as §1

[6] = compound: COc1cccc2cc(-c3nc([C@H]4CC[C@H](C(=O)O)CC4)n4ncnc(N)c34)[nH]c12
Method in brief: as §1

lapatinib = compound: CS(=O)(=O)CCNCc1ccc(-c2ccc3ncnc(Nc4ccc(OCc5cccc(F)c5)c(Cl)c4)c3c2)o1 [lapatinib]
Method in brief: as §1

pictilisib = compound: CS(=O)(=O)N1CCN(Cc2cc3nc(-c4cccc5[nH]ncc45)nc(N4CCOCC4)c3s2)CC1 [pictilisib]
Method in brief: as §1

Measured: log2 fold change

TPM3 isoform 2 (UniProt P06753)
inactive: saracatinib 0.009 | sotrastaurin 0.066 | alvocidib -0.003 | Tubastatin A 0.034 | [1] -0.005 | defactinib -0.031 | rucaparib -0.079 | [2] -0.001 | encorafenib -0.041 | [3] -0.014 | [4] -0.141 | filanesib 0.008 | zotarolimus -0.013 | idasanutlin 0.032 | alisertib -0.034 | [5] 0.198 | gefitinib 0.05 | [6] 0.046 | lapatinib 0.141 | pictilisib 0.021

TRMT11 (UniProt Q7Z4G4)
inactive: saracatinib 0.054 | sotrastaurin 0.083 | alvocidib -0.053 | Tubastatin A 0.001 | [1] -0.021 | defactinib -0.017 | rucaparib 0.03 | [2] -0.006 | encorafenib -0.006 | [3] 0.054 | [4] 0.042 | filanesib 0.002 | zotarolimus 0.015 | idasanutlin -0.046 | alisertib -0.011 | [5] -0.055 | gefitinib 0.03 | [6] 0.085 | lapatinib 0 | pictilisib -0.007

TSEN15 (UniProt Q8WW01)
inactive: saracatinib -0.022 | sotrastaurin -0.085 | alvocidib -0.082 | Tubastatin A 0.033 | [1] -0.054 | defactinib -0.072 | rucaparib -0.076 | [2] -0.009 | encorafenib 0.003 | [3] 0.088 | [4] -0.062 | filanesib 0.04 | zotarolimus 0.059 | idasanutlin 0.018 | alisertib -0.005 | [5] 0.045 | gefitinib 0.021 | [6] 0.018 | lapatinib 0.011 | pictilisib -0.04

TRIM33 (UniProt Q9UPN9)
inactive: saracatinib -0.164 | sotrastaurin -0.399 | alvocidib -0.062 | Tubastatin A 0.05 | [1] 0.063 | defactinib -0.09 | rucaparib -0.03 | [2] 0.012 | encorafenib -0.008 | [3] -0.22 | [4] 0.112 | filanesib 0.089 | zotarolimus 0.002 | idasanutlin -0.048 | alisertib 0.117 | [5] 0.308 | gefitinib 0 | [6] -0.044 | lapatinib -0.032 | pictilisib 0.051

TOP3B (UniProt O95985)
inactive: saracatinib -0.039 | sotrastaurin -0.061 | alvocidib 0.08 | Tubastatin A 0.025 | [1] -0.016 | defactinib 0.124 | rucaparib 0.133 | [2] 0.12 | encorafenib 0.034 | [3] -0.06 | [4] -0.009 | filanesib 0.173 | zotarolimus 0.051 | idasanutlin 0.065 | alisertib 0.13 | [5] -0.008 | gefitinib -0.002 | [6] -0.097 | lapatinib 0.039 | pictilisib -0.105

TRAPPC10 (UniProt P48553)
inactive: saracatinib -0.01 | sotrastaurin -0.015 | alvocidib -0.05 | Tubastatin A 0.065 | [1] -0.001 | defactinib -0.062 | rucaparib 0.037 | [2] 0.043 | encorafenib 0.023 | [3] 0.017 | [4] -0.031 | filanesib 0.022 | zotarolimus 0.029 | idasanutlin -0.08 | alisertib -0.029 | [5] 0.032 | gefitinib 0.02 | [6] 0.054 | lapatinib 0.071 | pictilisib -0.093

TRIP6 (UniProt Q15654)
inactive: saracatinib 0.028 | sotrastaurin -0.023 | alvocidib 0.016 | Tubastatin A -0.011 | [1] -0.041 | defactinib -0.014 | rucaparib -0.012 | [2] -0.036 | encorafenib -0.029 | [3] 0.01 | [4] 0.064 | filanesib -0.01 | zotarolimus 0.009 | idasanutlin 0.008 | alisertib -0.065 | [5] -0.008 | gefitinib -0.022 | [6] -0.006 | lapatinib 0.012 | pictilisib -0.002

Fetched one by one from above (2):
TRIM33 (UniProt Q9UPN9)
inactive: saracatinib -0.164 | sotrastaurin -0.399 | alvocidib -0.062 | Tubastatin A 0.05 | [1] 0.063 | defactinib -0.09 | rucaparib -0.03 | [2] 0.012 | encorafenib -0.008 | [3] -0.22 | [4] 0.112 | filanesib 0.089 | zotarolimus 0.002 | idasanutlin -0.048 | alisertib 0.117 | [5] 0.308 | gefitinib 0 | [6] -0.044 | lapatinib -0.032 | pictilisib 0.051

TRAPPC10 (UniProt P48553)
inactive: saracatinib -0.01 | sotrastaurin -0.015 | alvocidib -0.05 | Tubastatin A 0.065 | [1] -0.001 | defactinib -0.062 | rucaparib 0.037 | [2] 0.043 | encorafenib 0.023 | [3] 0.017 | [4] -0.031 | filanesib 0.022 | zotarolimus 0.029 | idasanutlin -0.08 | alisertib -0.029 | [5] 0.032 | gefitinib 0.02 | [6] 0.054 | lapatinib 0.071 | pictilisib -0.093

(listing goes on)

TOMM34 (UniProt Q15785)
inactive: saracatinib -0.11 | sotrastaurin -0.156 | alvocidib -0.043 | Tubastatin A 0.042 | [1] -0.068 | defactinib -0.047 | rucaparib 0.097 | [2] 0.034 | encorafenib 0.076 | [3] -0.116 | [4] 0.014 | filanesib -0.007 | zotarolimus -0.013 | idasanutlin -0.002 | alisertib -0.008 | [5] 0.063 | gefitinib 0.011 | [6] -0.04 | lapatinib -0.052 | pictilisib 0.169

TRAF6 (UniProt Q9Y4K3)
inactive: saracatinib -0.007 | sotrastaurin -0.009 | alvocidib -0.071 | Tubastatin A -0.03 | [1] 0.014 | defactinib -0.145 | rucaparib -0.074 | [2] -0.032 | encorafenib -0.051 | [3] 0.09 | [4] -0.041 | filanesib 0.019 | zotarolimus 0.055 | idasanutlin -0.041 | alisertib -0.037 | [5] 0.102 | gefitinib 0.056 | [6] -0.025 | lapatinib -0.016 | pictilisib -0.021

TRA2B (UniProt P62995)
inactive: saracatinib -0.112 | sotrastaurin 0.037 | alvocidib 0.356 | Tubastatin A 0.016 | [1] -0.246 | defactinib 0.227 | rucaparib 0.312 | [2] -0.03 | encorafenib 0.081 | [3] 0.067 | [4] -0.093 | filanesib 0.485 | zotarolimus -0.16 | idasanutlin 0.526 | alisertib -0.033 | [5] 0 | gefitinib -0.058 | [6] -0.106 | lapatinib 0.182 | pictilisib -0.052

TOMM40L (UniProt Q969M1)
inactive: saracatinib 0.057 | sotrastaurin -0.004 | alvocidib 0.009 | Tubastatin A 0.015 | [1] -0.074 | defactinib -0.031 | rucaparib -0.021 | [2] -0.089 | encorafenib 0.011 | [3] 0.013 | [4] -0.07 | filanesib 0.004 | zotarolimus -0.015 | idasanutlin -0.074 | alisertib 0.079 | [5] 0.008 | gefitinib 0.002 | [6] 0.079 | lapatinib -0.066 | pictilisib 0.001

TRAPPC9 isoform 2 (UniProt Q96Q05)
inactive: saracatinib -0.013 | sotrastaurin 0.003 | alvocidib -0.035 | Tubastatin A -0.08 | [1] -0.023 | defactinib -0.056 | rucaparib 0.008 | [2] 0.023 | encorafenib -0.014 | [3] -0.005 | [4] 0.006 | filanesib -0.047 | zotarolimus 0.027 | idasanutlin 0.047 | alisertib -0.013 | [5] -0.06 | gefitinib -0.018 | [6] 0.04 | lapatinib 0.041 | pictilisib -0.047

TRNT1 (UniProt Q96Q11)
inactive: saracatinib 0.01 | sotrastaurin 0.04 | alvocidib -0.007 | Tubastatin A -0.028 | [1] -0.032 | defactinib -0.003 | rucaparib 0.056 | [2] -0.009 | encorafenib -0.01 | [3] -0.005 | [4] 0.04 | filanesib 0.023 | zotarolimus -0.017 | idasanutlin -0.078 | alisertib -0.025 | [5] 0.068 | gefitinib -0.028 | [6] 0.064 | lapatinib 0.01 | pictilisib 0.043

TPST2 (UniProt O60704)
inactive: saracatinib -0.024 | sotrastaurin 0.02 | alvocidib -0.042 | Tubastatin A 0.003 | [1] 0.002 | defactinib 0.002 | rucaparib 0.046 | [2] 0.012 | encorafenib 0.054 | [3] -0.021 | [4] 0.036 | filanesib -0.031 | zotarolimus -0.011 | idasanutlin -0.007 | alisertib -0.091 | [5] 0.055 | gefitinib 0.093 | [6] 0.023 | lapatinib -0.034 | pictilisib -0.009

TPM1 (UniProt H7BYY1)
inactive: saracatinib 0.061 | sotrastaurin 0.05 | alvocidib 0.014 | Tubastatin A -0.072 | [1] -0.018 | defactinib -0.005 | rucaparib 0 | [2] -0.03 | encorafenib -0.043 | [3] -0.139 | [4] -0.112 | filanesib -0.012 | zotarolimus -0.037 | idasanutlin -0.12 | alisertib -0.073 | [5] 0.006 | gefitinib 0.023 | [6] 0.049 | lapatinib -0.071 | pictilisib 0.042

TSEN34 (UniProt Q9BSV6)
inactive: saracatinib -0.033 | sotrastaurin -0.008 | alvocidib 0.07 | Tubastatin A -0.033 | [1] -0.054 | defactinib -0.051 | rucaparib -0.013 | [2] 0.007 | encorafenib 0.005 | [3] -0.046 | [4] 0.051 | filanesib -0.07 | zotarolimus -0.057 | idasanutlin -0.059 | alisertib 0.003 | [5] 0.017 | gefitinib 0.009 | [6] 0.043 | lapatinib 0.039
